These results are taken from paper PMC5829263, “Homoarginine and inhibition of human arginase activity: kinetic characterization and biological relevance” (Scientific Reports, 2018).

The data set in a line: Plasma concentrations in healthy older adults, UPLC-MS. Particulars: healthy older adults >65 years, endogenous level. The class given is in vivo, human.

The structures appear in SMILES notation.

As to `N=C(N)NCCC[C@H](N)C(=O)O` [ARG, arginine], the “Mean baseline plasma concentration” value is on record as 305 ± 44 µmol/L.

As for `N=C(N)NCCCC[C@H](N)C(=O)O` [HOMOARG, homoarginine], the “Mean baseline plasma concentration” value is recorded as 2.36 ± 0.76 µmol/L.
